Taken from: PubChem BioAssay AID686943 (Drosophila RNAi Screening Center, 2013)
The screen tested about 23,000 reagents; below is an unselected part of those that have a named target and a result. 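Extra replicates exist only for a retested subset of genes; insulin dose and duration not given; both raised and lowered dpERK matter.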 Not all columns of the deposit are shown. Not stated in the record: the amount of reagent, the time to read-out.

- Aim: 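Fly genes whose loss alters ERK activation after insulin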 (primary screen)
- Cells: Drosophila S2R+ haemocyte-like cells expressing YFP-tagged ERK (Rolled)
- Reagent: long dsRNA against Drosophila genes
- Treatment: insulin stimulation versus unstimulated cells; dose and duration not given
- Measurement: 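Antibody staining for doubly phosphorylated ERK divided by ERK-YFP signal, as plate z-scores, in insulin-treated and untreated cells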
- Scale: replicate 1, z-score of dpERK with insulin and replicate 2, z-score of dpERK with insulin: higher = more active ERK per ERK-YFP after insulin

{"target": "asp", "DRSC id": "DRSC16903", "replicate 1, z-score of dpERK with insulin": 0.17, "replicate 2, z-score of dpERK with insulin": -0.37}
{"target": "Six4", "DRSC id": "DRSC11881", "replicate 1, z-score of dpERK with insulin": 0.59, "replicate 2, z-score of dpERK with insulin": -0.01}
{"target": "Sr-CIII", "DRSC id": "DRSC22262", "replicate 1, z-score of dpERK with insulin": 0.26, "replicate 2, z-score of dpERK with insulin": 0.47}
{"target": "CG18585", "DRSC id": "DRSC02678", "replicate 1, z-score of dpERK with insulin": 0.25, "replicate 2, z-score of dpERK with insulin": -0.16}
{"target": "Hmr", "DRSC id": "DRSC17740", "replicate 1, z-score of dpERK with insulin": -0.13, "replicate 2, z-score of dpERK with insulin": 1.17}
{"target": "CG31008", "DRSC id": "DRSC14028", "replicate 1, z-score of dpERK with insulin": -0.11, "replicate 2, z-score of dpERK with insulin": 0.15}
{"target": "CG17660", "DRSC id": "DRSC00513", "replicate 1, z-score of dpERK with insulin": -0.25, "replicate 2, z-score of dpERK with insulin": 0.17}
{"target": "CG14354", "DRSC id": "DRSC14817", "replicate 1, z-score of dpERK with insulin": -0.23, "replicate 2, z-score of dpERK with insulin": -1.45}
{"target": "CG14395", "DRSC id": "DRSC14852", "replicate 1, z-score of dpERK with insulin": 0.06, "replicate 2, z-score of dpERK with insulin": 0.83}
{"target": "Fpgs2", "DRSC id": "DRSC00600", "replicate 1, z-score of dpERK with insulin": -0.4, "replicate 2, z-score of dpERK with insulin": 0.49}
{"target": "mil", "DRSC id": "DRSC15696", "replicate 1, z-score of dpERK with insulin": 0.57, "replicate 2, z-score of dpERK with insulin": -0.03}
{"target": "CG15125", "DRSC id": "DRSC06547", "replicate 1, z-score of dpERK with insulin": -0.24, "replicate 2, z-score of dpERK with insulin": 0.52}
{"target": "Sans", "DRSC id": "DRSC06357", "replicate 1, z-score of dpERK with insulin": -0.52, "replicate 2, z-score of dpERK with insulin": 0.14}
{"target": "CG15093", "DRSC id": "DRSC06522", "replicate 1, z-score of dpERK with insulin": 0.74, "replicate 2, z-score of dpERK with insulin": 0.48}
{"target": "obst-G", "DRSC id": "DRSC11103", "replicate 1, z-score of dpERK with insulin": 0.19, "replicate 2, z-score of dpERK with insulin": 0.34}
{"target": "CG42699", "DRSC id": "DRSC18076", "replicate 1, z-score of dpERK with insulin": 0.11, "replicate 2, z-score of dpERK with insulin": 0.47}
{"target": "CG42699", "DRSC id": "DRSC18341", "replicate 1, z-score of dpERK with insulin": 0.54, "replicate 2, z-score of dpERK with insulin": -0.5}
{"target": "atos", "DRSC id": "DRSC07318", "replicate 1, z-score of dpERK with insulin": -0.28, "replicate 2, z-score of dpERK with insulin": -2.03}
{"target": "ACXA", "DRSC id": "DRSC00844", "replicate 1, z-score of dpERK with insulin": 0.36, "replicate 2, z-score of dpERK with insulin": 0.03}
{"target": "Prx3", "DRSC id": "DRSC15883", "replicate 1, z-score of dpERK with insulin": -1.89, "replicate 2, z-score of dpERK with insulin": 0.1}
{"target": "CG5122", "DRSC id": "DRSC02816", "replicate 1, z-score of dpERK with insulin": 0.48, "replicate 2, z-score of dpERK with insulin": -0.04}
{"target": "CG15209", "DRSC id": "DRSC19655", "replicate 1, z-score of dpERK with insulin": 0.59, "replicate 2, z-score of dpERK with insulin": 0.07}
{"target": "mRpL2", "DRSC id": "DRSC10896", "replicate 1, z-score of dpERK with insulin": -0.42, "replicate 2, z-score of dpERK with insulin": -0.5}
{"target": "mRpL41", "DRSC id": "DRSC06257", "replicate 1, z-score of dpERK with insulin": -0.49, "replicate 2, z-score of dpERK with insulin": 0.11}
{"target": "CG34231", "DRSC id": "DRSC05323", "replicate 1, z-score of dpERK with insulin": 0, "replicate 2, z-score of dpERK with insulin": 0.59}
{"target": "Or71a", "DRSC id": "DRSC11244", "replicate 1, z-score of dpERK with insulin": 0.06, "replicate 2, z-score of dpERK with insulin": -0.14}
{"target": "Cals", "DRSC id": "DRSC17196", "replicate 1, z-score of dpERK with insulin": 1.82, "replicate 2, z-score of dpERK with insulin": 0.3}
{"target": "Cals", "DRSC id": "DRSC21661", "replicate 1, z-score of dpERK with insulin": -0.53, "replicate 2, z-score of dpERK with insulin": 0}
{"target": "Cpr51A", "DRSC id": "DRSC05969", "replicate 1, z-score of dpERK with insulin": 0.37, "replicate 2, z-score of dpERK with insulin": 0.77}
{"target": "mio", "DRSC id": "DRSC00692", "replicate 1, z-score of dpERK with insulin": -1.28, "replicate 2, z-score of dpERK with insulin": -0.22}
{"target": "mio", "DRSC id": "DRSC22056", "replicate 1, z-score of dpERK with insulin": 0.93, "replicate 2, z-score of dpERK with insulin": -1.14}

Limited to “replicate 1, z-score of dpERK with insulin” (4 entries from above):
Cals [DRSC21661]	-0.53
Cpr51A [DRSC05969]	0.37
mio [DRSC00692]	-1.28
mio [DRSC22056]	0.93
